Our source for the binding values is publication PMC11671593.

Amino acid sequences for entries named in this document (tags omitted).
UniProt Q06330: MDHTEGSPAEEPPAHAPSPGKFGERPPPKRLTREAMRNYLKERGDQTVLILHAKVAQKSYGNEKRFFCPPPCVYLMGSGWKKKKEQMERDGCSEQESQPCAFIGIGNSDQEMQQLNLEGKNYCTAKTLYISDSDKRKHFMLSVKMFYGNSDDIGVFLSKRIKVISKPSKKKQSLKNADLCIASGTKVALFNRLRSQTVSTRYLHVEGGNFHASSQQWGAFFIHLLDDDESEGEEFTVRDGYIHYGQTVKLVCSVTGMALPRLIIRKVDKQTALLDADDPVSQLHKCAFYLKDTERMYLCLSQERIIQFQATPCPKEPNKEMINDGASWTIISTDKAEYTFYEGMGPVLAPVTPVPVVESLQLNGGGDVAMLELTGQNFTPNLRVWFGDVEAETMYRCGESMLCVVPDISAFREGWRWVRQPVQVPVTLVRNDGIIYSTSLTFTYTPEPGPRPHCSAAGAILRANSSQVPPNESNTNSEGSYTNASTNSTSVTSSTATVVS

The test has as its target T1, Tripartite motif containing 59 (TRIM59), in PC cells (human (in human PC cell lines)) (UniProt Q8IWR1).
T1 sequence: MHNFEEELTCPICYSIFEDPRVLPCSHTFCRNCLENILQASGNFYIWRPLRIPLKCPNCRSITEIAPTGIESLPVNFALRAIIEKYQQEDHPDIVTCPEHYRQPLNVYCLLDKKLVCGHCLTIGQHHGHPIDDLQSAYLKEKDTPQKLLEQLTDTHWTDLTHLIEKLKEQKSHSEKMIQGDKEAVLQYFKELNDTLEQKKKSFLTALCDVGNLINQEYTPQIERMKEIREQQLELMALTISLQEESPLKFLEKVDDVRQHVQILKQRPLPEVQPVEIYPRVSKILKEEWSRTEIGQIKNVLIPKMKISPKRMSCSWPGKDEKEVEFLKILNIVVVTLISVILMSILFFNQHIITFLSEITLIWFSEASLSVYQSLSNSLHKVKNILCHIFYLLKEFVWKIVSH
As to the kind of experiment: affinity purification with mass spectrometry; Co-IP (primary antibody, protein A + G sepharose beads), SDS-PAGE, silver staining and MS; cells not named.

These are yes or no findings as the source states them, for the method shown. In cells and extracts the contact can be indirect. A yes stands for co-enrichment or nearness to the bait. Other partners may have been found.

For “Recombination signal binding protein for immunoglobulin kappa J region (RBPJ), in PC cells (from UniProt Q06330 1-500)”, the binding entry is listed as “binds”.
